Assay results from paper PMC3633926.
Construct, isoform or probe ends are uncertain for at least one entry. At least one result comes from cells or an extract, where the contact may be indirect.

Sequences of proteins named here, by UniProt entry; tags and fusion partners are left off. A change or cut given only in a name is not applied to a line headed by its entry.
UniProt P43694: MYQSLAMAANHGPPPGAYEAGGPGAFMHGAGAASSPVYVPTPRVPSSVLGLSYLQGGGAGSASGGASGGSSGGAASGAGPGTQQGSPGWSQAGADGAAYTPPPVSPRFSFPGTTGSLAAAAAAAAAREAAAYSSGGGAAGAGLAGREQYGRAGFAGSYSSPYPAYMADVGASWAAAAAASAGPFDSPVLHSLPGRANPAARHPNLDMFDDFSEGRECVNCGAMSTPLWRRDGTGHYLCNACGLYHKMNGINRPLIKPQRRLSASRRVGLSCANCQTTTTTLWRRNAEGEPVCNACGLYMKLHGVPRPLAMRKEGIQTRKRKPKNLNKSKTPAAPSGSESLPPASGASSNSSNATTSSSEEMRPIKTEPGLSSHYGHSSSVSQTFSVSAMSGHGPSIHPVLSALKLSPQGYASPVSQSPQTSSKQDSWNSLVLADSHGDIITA

Tests used:
[1] = biological target: GATA4 wild type (Homo sapiens) (UniProt P43694); assay: EMSA; details: poly(dI-dC); LightShift kit 1x binding buffer, 1 ug poly(dI-dC), 2 ul nuclear extract, 1 pmol biotin probe, 20 ul, 20 min at room temperature; 6% native PAGE, 0.5x TBE; protein in a lysate after overexpression; residues 1-442; protein details: Myc; label: biotin (cold as competitor)
[2] = biological target: GATA4 wild type (Homo sapiens) (UniProt P43694); assay: competition with a labelled probe; details: 100-fold cold wild type oligonucleotide competes; LightShift kit 1x binding buffer, 1 ug poly(dI-dC), 2 ul nuclear extract, 1 pmol biotin probe, 20 ul, 20 min at room temperature; 6% native PAGE, 0.5x TBE; protein in a lysate after overexpression; residues 1-442; protein details: Myc; label: biotin (cold as competitor)

“GCAGTTAACTGATAATGACACTGTG (double strand) [dHAND GATA element]”: binds [1]; binds [2].
